Read-outs that look alike come from different tables or passages of the source. No constants are given. Whether binding was seen depends on the method and setting. In cells and extracts the contact can be indirect. Some results given as binding are weak or reduced against the parent protein; the word gives no strength. For part of these data: Where a sequence is shown, tags or fusion partners need not be part of it. Each block holds one molecule with its values, some of them ahead of it.
Legend:
Human p59 Hck (human) [1] = target: Human p59 Hck (human) (UniProt P08631); assay: co-IP; Cos1 cells transiently transfected; lysis in 50 mM Tris-Cl pH 7.5, 150 mM NaCl, 10% glycerol, 0.5% NP-40; Hck polyclonal antibody or control rabbit IgG overnight at 4°C; Protein A/G Plus beads; western blot
Human p59 Hck (human) [2] = target: Human p59 Hck (human) (UniProt P08631); assay: as above; remark: listed apart in the source
[3] = target: endogenous Hck (human (endogenous in HL-60)) (UniProt P08631); assay: co-IP; endogenous proteins; lysates of differentiated HL-60 cells (DMSO 1.25%) immunoprecipitated with Hck antibody or control rabbit IgG; western blot for p73 and Hck

By UniProt entry, the sequences of proteins in these tests, tags left out. Where a name states a change or a piece, a line headed by the entry shows the natural chain unless it says otherwise. Residues count along the entry.
UniProt P08631: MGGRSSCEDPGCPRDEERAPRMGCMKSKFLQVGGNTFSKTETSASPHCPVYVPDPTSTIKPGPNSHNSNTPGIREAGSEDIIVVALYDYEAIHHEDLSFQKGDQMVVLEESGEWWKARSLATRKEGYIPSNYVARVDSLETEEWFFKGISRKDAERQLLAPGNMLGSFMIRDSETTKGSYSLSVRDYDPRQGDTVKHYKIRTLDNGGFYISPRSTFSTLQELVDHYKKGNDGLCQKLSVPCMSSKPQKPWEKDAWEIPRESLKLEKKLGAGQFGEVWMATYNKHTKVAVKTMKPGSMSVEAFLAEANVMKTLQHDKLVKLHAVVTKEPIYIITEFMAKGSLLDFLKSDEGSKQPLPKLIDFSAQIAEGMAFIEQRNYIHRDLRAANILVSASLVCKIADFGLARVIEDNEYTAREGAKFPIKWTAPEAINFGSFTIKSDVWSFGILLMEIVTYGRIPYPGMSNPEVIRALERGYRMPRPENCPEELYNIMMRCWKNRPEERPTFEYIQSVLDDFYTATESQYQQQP
Human p59 Hck: residues 22-526 of P08631

- binding (Human p59 Hck (human) [1]): binds
Molecule: GFP-YAP (from UniProt P46937-5 1-450)

B1: HA-p73α (protein, UniProt O15350-1 1-636)
chain: MAQSTATSPDGGTTFEHLWSSLEPDSTYFDLPQSSRGNNEVVGGTDSSMDVFHLEGMTTSVMAQFNLLSSTMDQMSSRAASASPYTPEHAASVPTHSPYAQPSSTFDTMSPAPVIPSNTDYPGPHHFEVTFQQSSTAKSATWTYSPLLKKLYCQIAKTCPIQIKVSTPPPPGTAIRAMPVYKKAEHVTDVVKRCPNHELGRDFNEGQSAPASHLIRVEGNNLSQYVDDPVTGRQSVVVPYEPPQVGTEFTTILYNFMCNSSCVGGMNRRPILIIITLEMRDGQVLGRRSFEGRICACPGRDRKADEDHYREQQALNESSAKNGAASKRAFKQSPPAVPALGAGVKKRRHGDEDTYYLQVRGRENFEILMKLKESLELMELVPQPLVDSYRQQQQLLQRPSHLQPPSYGPVLSPMNKVHGGMNKLPSVNQLVGQPPPHSSAATPNLGPVGPGMLNNHGHAVPANGEMSSSHSAQSMVSGSHCTPPPPYHADPSLVSFLTGLGCPNCIEYFTSQGLQSIYHLQNLTIEDLGALKIPEQYRMTIWRGLQDLKQGHDYSTAQQLLRSSNAATISIGGSGELQRQRVMEAVHFRVRHTITIPNRGGPGGGPDEWADFGFDLPDCKARKQPIKEEFTEAEIH
- binding (Human p59 Hck (human) [2]): binds

- binding [3]: binds
B2: endogenous p73α (protein, UniProt O15350-1 1-636)
chain: B1 chain

From PMC1899183
